Drawing on PubChem BioAssay (NCATS), this text covers AC50 and IC50 for 33 compounds.

Protein sequences, listed by entry. Tags and fused reporters are not part of them. Lines headed by an entry give the natural chain unless they say otherwise; changes in a name come on top.
UniProt P21964: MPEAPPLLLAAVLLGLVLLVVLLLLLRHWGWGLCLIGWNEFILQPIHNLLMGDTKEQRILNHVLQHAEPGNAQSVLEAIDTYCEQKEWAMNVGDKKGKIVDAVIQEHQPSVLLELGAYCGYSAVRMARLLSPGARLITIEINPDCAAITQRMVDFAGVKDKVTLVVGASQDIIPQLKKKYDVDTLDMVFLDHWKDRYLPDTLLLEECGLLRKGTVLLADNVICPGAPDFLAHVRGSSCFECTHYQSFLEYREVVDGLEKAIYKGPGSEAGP

The list shows a part of the results. Further columns of the screen follow, without active or inactive calls. Most of these compounds were active or inconclusive in the main read-out, so they are no random draw. The note in brackets gives the kind of curve behind each potency; many fits are weak.

As usually defined, the AC50 is the concentration at which the activity in the assay is half-maximal. What is called IC50 is the midpoint of a concentration-inhibition curve.

The nature of assay [1]: S16 Schwann cell PMP22 intronic element beta-lactamase assay (AID 624044). The settings on record: S16 rat Schwann cells, PMP22 element beta-lactamase FRET, 24 h. The gist of the method: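 Beta-lactamase reporter under a PMP22 intronic regulatory element in stable S16 rat Schwann cells; 24 h compound exposure. 460 nm blue signal normalized between DMSO (0%) and potassium clavulanate, with 535 nm FRET tracking viability; curves classed by r2 and response.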

Assay [2] in a line: A High-Content qHTS Against Drug Library for the Identification of Small Molecules that Inhibit DYT1 Early Onset Primary Dystonia-Associated Cell Pathology (AID 1645839). The settings on record: HEK293 Flp-In EGFP-delE TorsinA, punctate imaging, 48 h; measured here: cell count cytotoxicity. The gist of the method: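 Cells were seeded and left for 24 h, then dosed with compound alongside tetracycline induction of mutant EGFP-TorsinA. They were incubated for 48 h, fixed in 4% paraformaldehyde, permeabilized and imaged for mislocalization (%pathology) and cell count.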
A general note: qHTS replaces the single test concentration by a dilution series.

The target in assay [3] is Catechol O-methyltransferase (Homo sapiens) (UniProt P21964). Kind of assay: Confirmatory Screen for Target Class Profiling of Small Molecule Inhibitors of Methyltransferases (AID 1745852). The note with it: MTase-Glo luminescence, SAH detection, recombinant enzyme; measured here: COMT inhibition potency.
The mark [4] stands for this setting: measured here: 460 nm blue channel.
[5] abbreviates: measured here: 530 nm viability channel.

Consider `CN1CCC(Nc2ncc3ncnc(Nc4ccc(F)c(Cl)c4)c3n2)CC1`, for which the AC50 was 17.8 µM [rising, partial curve] in assay [1] (setting [4]); 14.1 µM [rising, partial curve] in assay [1] (setting [5]); 2.24 µM [falling, partial curve, poor fit] in assay [2].

In the case of `[O-][n+]1ccccc1SSc1cccc[n+]1[O-]`, the AC50 in assay [1] (setting [4]) was 0.999 µM [falling, full curve]; in assay [1] (setting [5]), 1.12 µM [rising, full curve]; in assay [2] it was 1.12 µM [falling, partial curve, poor fit]. Take `CC(C)N=C(N)/N=C(\N)Nc1ccc(Cl)cc1`: the AC50 in assay [1] (setting [4]) was 2.39 µM [falling, partial curve, poor fit]; in assay [2], 35.5 µM [falling, partial curve, poor fit]. Consider `C=C(C(=O)O)[C@@H]1CC[C@H](C)[C@@H]2CC(=O)C(C)=C2C1`, for which the IC50 in assay [3] is 13.6 µM [falling, partial curve]. `CC(C)c1cc2c(c(O)c1O)[C@@]13CCCC(C)(C)C1[C@@H](O)[C@@H]2OC3=O` (stereo partly drawn): the concentration for half-maximal inhibition (IC50) in assay [3] was 2.98 µM [falling, full curve]. In the case of `CC(C)=CCC(O)/C(C)=C/CO[C@@H]1O[C@H](CO)[C@@H](O)[C@H](O)[C@H]1O` (stereo partly drawn), in assay [3], the IC50 is 13.3 µM [falling, partial curve].

As to `CN1Cc2sccc2C(c2ccc(O)c(O)c2)C1` (stereo not drawn), in assay [3], the IC50 is 6.85 µM [rising, partial curve]. Same read-out and setting: in the case of `COc1c2cc(c(O[C@@H]3O[C@H](CO)[C@@H](O)[C@H](O)[C@H]3O)c1OC)CCCCC(O)CCc1ccc(O)c-2c1` (stereo partly drawn) it was 1.48 µM [falling, full curve]; in that of `CC1=CC(=O)C2(OC3OC(C)C(O)C(OC(=O)/C=C/c4ccccc4)C3O)C=COC(OC3OC(CO)C(O)C(O)C3O)C12` (stereo not drawn), 6.38 µM [falling, partial curve]; in that of `COc1ccc(CCNC(=O)c2ccc3c(=O)[nH]c4c(C(=O)NCC5CCCO5)sc(=S)n4c3c2)cc1OC` (stereo not drawn), 24.1 µM [falling, partial curve]. On the same count and under the same terms, in the case of `OC1COC(OCC2OC(OCCc3ccccc3)C(O)C(O)C2O)C(O)C1O` (stereo not drawn) it was 5.27 µM [falling, partial curve].

`C=C[C@H]1[C@H](O[C@@H]2O[C@H](CO)[C@@H](O)[C@H](OC(=O)/C=C/c3ccc(O)c(OC)c3)[C@H]2O)OC=C2C(=O)OCC[C@]21O`: the IC50 in assay [3] was 8.35 µM [falling, partial curve].

With `CC(=O)NC(Cc1c[nH]c2ccccc(=O)c12)C(=O)O` (stereo not drawn), the IC50 in assay [3] was 15.2 µM [falling, partial curve].

For the compound `COc1c(O)cc2c(c1O)C(=O)O[C@H](C)[C@H]2O`, in assay [3], the IC50 is 21.5 µM [falling, partial curve].

For the compound `CC1=CC(=O)CC(C)(C)C1CCC(C)OC1OC(COC(=O)c2cc(O)c(O)c(O)c2)C(O)C(O)C1O` (stereo not drawn), the IC50 in assay [3] was 0.527 µM [falling, full curve].

On to `C=C(C)C1Cc2cc(C(=O)OC3OC(CO)C(O)C(O)C3O)ccc2O1` (stereo not drawn), for which the IC50 in assay [3] was 7.48 µM [falling, partial curve]. Same read-out and setting: with `COC(=O)C1=COC(OC2OC(CO)C(O)C(O)C2O)C2C1CC(OC(=O)C(O)CC(=O)O)C2C` (stereo not drawn) the figure was 5.91 µM [falling, partial curve]; with `C=C[C@H]1[C@H](O[C@@H]2O[C@H](CO)[C@@H](O)[C@H](O)[C@H]2O)OC=C(C(=O)OC)[C@H]1CCO`, 4.72 µM [falling, full curve]; with `O=C(/C=C/c1ccc(O)cc1)OC[C@@]1(O)C=C[C@@H]2C(C(=O)O)=CO[C@@H](O[C@@H]3O[C@H](CO)[C@@H](O)[C@H](O)[C@H]3O)[C@@H]21`, 4.7 µM [falling, partial curve]. As to `CC1(C)C2CCC1(C)C(OC(=O)C(O)(CC(=O)O)CC(=O)O)C2` (stereo not drawn), the IC50 in assay [3] is 9.42 µM [falling, partial curve]. Still for that read-out and setting: with `COc1cc(/C=C/C(=O)OCC2OC(OC3(CO)OC(CO)C(O)C3O)C(O)C(O)C2O)ccc1O` (stereo not drawn) the figure was 7.44 µM [falling, partial curve]. Same read-out and setting: in the case of `O=C(/C=C/c1ccccc1)OC[C@]12O[C@H]1[C@@H](O)[C@@H]1C=CO[C@@H](O[C@@H]3O[C@H](CO)[C@@H](O)[C@H](O)[C@H]3O)[C@@H]12` it was 7.44 µM [falling, partial curve]. As to `C=C[C@H]1[C@H](O[C@@H]2O[C@H](CO)[C@@H](O)[C@H](O)[C@H]2O)OC=C(C(=O)OC)[C@H]1C/C=C(/C=O)[C@@H]1C(C(=O)OC)=CO[C@@H](O[C@@H]2O[C@H](CO)[C@@H](O)[C@H](O)[C@H]2O)[C@@H]1C=C`, the IC50 in assay [3] is 4.03 µM [falling, partial curve]. On the same count and under the same terms, in the case of `COc1cc(C2Oc3c(OC)cc(CCCO)cc3C2CO)ccc1O` (stereo not drawn) it was 2.11 µM [falling, full curve]. Same read-out and setting: in the case of `C=C1CC/C=C(/CO)C(=O)C[C@@H]2[C@@H]1C[C@@]2(C)COC(C)=O` it was 12.1 µM [falling, partial curve]; in that of `CC1CC(O)C2(C)C(C(=O)O)=CCCC2C1(C)CCc1ccoc1` (stereo not drawn), 3.34 µM [falling, full curve]; in that of `COc1cc(C2Oc3c(OC)cc(/C=C/C(=O)OC[C@H]4O[C@@H](OC(C)(C)C(=O)O)[C@H](O)[C@@H](O)[C@@H]4O)cc3C2CO)ccc1O` (stereo partly drawn), 5.69 µM [falling, partial curve]. Consider `COc1cc(/C=C/C(=O)O[C@H]2[C@@H]3C=CO[C@@H](O[C@@H]4O[C@H](CO)[C@@H](O)[C@H](O)[C@H]4O)[C@@H]3[C@@]3(CO)O[C@@H]23)ccc1O`, for which the IC50 in assay [3] is 8.35 µM [falling, partial curve]. Same read-out and setting: in the case of `C=C1C(=O)O[C@@H]2/C=C(\CO)CC/C=C(/C=O)C[C@@H](O)[C@@H]12` it was 19.2 µM [falling, partial curve]; in that of `CCOc1cc(CNc2ccc(C(=O)O)cc2)ccc1OCc1ccccc1`, 21.7 µM [falling, partial curve]; in that of `COC(=O)C1=CO[C@@H](O[C@@H]2O[C@H](CO)[C@@H](O)[C@H](O)[C@H]2O)[C@H]2[C@@H]1CC(OC)O[C@@H]2C` (stereo partly drawn), 6.63 µM [falling, partial curve]. Consider `COc1cc(/C=C/C(=O)O[C@H]2[C@H](OC(=O)/C=C/c3cc(OC)c(O)c(OC)c3)O[C@H](CO[C@@H]3O[C@H](CO)[C@@H](O)[C@H](O)[C@H]3O)[C@@H](O)[C@@H]2O)ccc1O`, for which the IC50 in assay [3] was 5.69 µM [falling, partial curve]. The same measure, in the same setting: with `C=C1C(=O)O[C@@H]2/C=C(\CO)CC/C=C(/C=O)C[C@H](O)[C@@H]12` the figure was 1.36 µM [falling, full curve].
